Patent US20060293343A1, “Pyrimidine derivatives” (Asahi Kasei Pharma Corporation, priority 2005, published 2006)
Some entries share one result that the patent states for a list of compounds. For at least one compound, name, drawing or mass did not settle the structure.

system: T1, PDE4; assay: Inhibitory action of PDE4 enzyme activity (PDE4 purified from U937 cells); format: biochemical; details: at a concentration of 20 μM
T1 construct: The PDE4 enzyme was purified from U937 cells that are the cells derived from lymphoma
Experimental: (1) Purification of PDE4 from U937 Cells
The PDE4 enzyme was purified from U937 cells that are the cells derived from lymphoma. U937 cells were suspended in buffer solution A (20 mM Tris-HCl(pH 6.5), 1 mM MgCl2, 0.1 mM EGTA, 3 mM 2-mercaptoethanol) containing protease. inhibitor cocktail (manufactured by Sigma Co.), and a soluble fraction was obtained by centrifugation after ultrasonic disintegration (100,000 G, 30 minutes, 4° C.). […] Each fraction was tested for the cAMP metabolized PDE activity to identify the fractions containing PDE4 enzyme.
(2) Measurement of Inhibitory Activity of PDE4 Enzyme Activity
A desired concentration of the test compound was allowed to react in a reaction mixture (100 μL; 40 mM Tris-HCl (pH 7.4), 5 MM MgCl2, 4 mM 2-mercaptoethanol, […] cAMP, 0.83 μCi [^3H]-cAMP and PDE4 fraction) at 30° C. for 10 minutes. The enzyme reaction was stopped by adding 25 μL of trichloroacetic acid to the reaction mixture. The reaction solution was charged on a neutral alumina column equilibrated with 0.1 M of 2-[[tris(hydroxylmethyl)methyl]-amino]-1-ethanesulfonic acid (TES) buffer (pH 8.0) and, after washing the column with a sufficient amount of 0.1 M TES buffer solution, the column was eluted with 2N NaOH. A 500 μL aliquot of the eluate containing [^3H]-5′AMP product was filled in a scintillation vial containing the scintillation cocktail (5 ml, manufactured by Perkin Elmer Co.) to measure radioactivity. […] The inhibitory action of PDE4 enzyme activity was expressed by IC50 (nM). Ex. No. in Table 8 denotes the example No.

**Q.** `CCc1c(C)nc(-c2ccc(C(=O)OC)s2)nc1Nc1ccc(C(=O)O)cc1` [Example 50] was tested. Which “inhibitory activity of PDE4 enzyme” value did it give?
**A.** ≥ 50%

**Q.** For `CCc1nc(-c2ccsc2)nc(Nc2ccc(C(=O)O)cc2)c1CC` [Example 57], which “inhibitory activity of PDE4 enzyme” value is on record?
**A.** ≥ 50%

**Q.** Which “inhibitory activity of PDE4 enzyme” value does the source give for `CCc1nc(-c2ccsc2)nc(Nc2ccc(CC(=O)O)cc2)c1CC` [Example 58] here?
**A.** ≥ 50%

**Q.** With `CCc1nc(-c2ccsc2)nc(Nc2ccc3cc(C(=O)O)ccc3c2)c1CC` [Example 59] as the compound, how does the “inhibitory activity of PDE4 enzyme” value read?
**A.** ≥ 50%

**Q.** For `CCc1nc(-c2ccc(OC)s2)nc(Nc2ccc(CC(=O)O)cc2)c1CC` [Example 81], which “inhibitory activity of PDE4 enzyme” value is on record?
**A.** ≥ 50%

**Q.** For `CCc1nc(-c2cccs2)nc(Nc2ccc(C(=O)O)cc2)c1CC` [Example 83], which “inhibitory activity of PDE4 enzyme” value is on record?
**A.** ≥ 50%

**Q.** For `CCc1nc(-c2cccs2)nc(Nc2ccc(CC(=O)O)cc2)c1CC` [Example 84], which “inhibitory activity of PDE4 enzyme” value is on record?
**A.** ≥ 50%

**Q.** Which “inhibitory activity of PDE4 enzyme” value does the source give for `CCc1nc(-c2ccoc2)nc(Nc2ccc(C(=O)O)cc2)c1CC` [Example 86] here?
**A.** ≥ 50%

**Q.** For `CCc1ccc(-c2nc(C)c(CC)c(Nc3ccc(CC(=O)O)cc3)n2)s1` [Example 101], which “inhibitory activity of PDE4 enzyme” value is on record?
**A.** ≥ 50%

**Q.** How did the “inhibitory activity of PDE4 enzyme” value turn out when `C=CCc1c(CC)nc(-c2ccoc2)nc1Nc1ccc(C(=O)O)cc1` [Example 103] was run?
**A.** ≥ 50%

**Q.** `CCc1nc(-c2ccc(C)s2)nc(Nc2ccc(CC(=O)O)cc2)c1CC` [Example 110] was tested. Which “inhibitory activity of PDE4 enzyme” value did it give?
**A.** ≥ 50%

**Q.** How did the “inhibitory activity of PDE4 enzyme” value turn out when `CCc1nc(-c2ccc(C)s2)nc(Nc2ccc3cc(C(=O)O)ccc3c2)c1CC` [Example 111] was run?
**A.** ≥ 50%

**Q.** How did the “inhibitory activity of PDE4 enzyme” value turn out when `CCc1c(C)nc(-c2cccs2)nc1Nc1ccc(CC(=O)NO)cc1` [Example 116] was run?
**A.** ≥ 50%

**Q.** `CCCc1ccc(-c2nc(C)c(CC)c(Nc3ccc(CC(=O)O)cc3)n2)s1` [Example 120] was tested. Which “inhibitory activity of PDE4 enzyme” value did it give?
**A.** ≥ 50%

**Q.** With `CCc1nc(-c2ccc(SC)s2)nc(Nc2ccc(CC(=O)O)cc2)c1CC` [Example 128] as the compound, how does the “inhibitory activity of PDE4 enzyme” value read?
**A.** ≥ 50%

**Q.** With `CCc1c(C)nc(-c2cc(Br)cs2)nc1Nc1ccc(CC(=O)O)cc1` [Example 146] as the compound, how does the “inhibitory activity of PDE4 enzyme” value read?
**A.** ≥ 50%

**Q.** How did the “inhibitory activity of PDE4 enzyme” value turn out when `CCc1c(C)nc(-c2ccc(Br)s2)nc1Nc1ccc(C(=O)O)cc1` [Example 147] was run?
**A.** ≥ 50%

**Q.** How did the “inhibitory activity of PDE4 enzyme” value turn out when `CCc1c(C)nc(-c2ccc(Br)s2)nc1Nc1ccc(CC(=O)O)cc1` [Example 148] was run?
**A.** ≥ 50%

**Q.** How did the “inhibitory activity of PDE4 enzyme” value turn out when `CCc1nc(-c2cc(C)c(C)s2)nc(Nc2ccc(CC(=O)O)cc2)c1CC` [Example 154] was run?
**A.** ≥ 50%

**Q.** How did the “inhibitory activity of PDE4 enzyme” value turn out when `CCc1c(C)nc(-c2cc(OC)cs2)nc1Nc1ccc(CC(=O)O)cc1` [Example 159] was run?
**A.** ≥ 50%

**Q.** With `CCCCCC/C=C/c1ccc(-c2nc(C)c(CC)c(Nc3ccc(CC(=O)O)cc3)n2)s1` [Example 169] as the compound, how does the “inhibitory activity of PDE4 enzyme” value read?
**A.** ≥ 50%

**Q.** With `CCCCCC/C=C/c1csc(-c2nc(C)c(CC)c(Nc3ccc(CC(=O)O)cc3)n2)c1` [Example 175] as the compound, how does the “inhibitory activity of PDE4 enzyme” value read?
**A.** ≥ 50%

**Q.** `CCc1c(C)nc(-c2ccc(C(C)=O)s2)nc1Nc1ccc(CC(=O)O)cc1` [Example 215] was tested. Which “inhibitory activity of PDE4 enzyme” value did it give?
**A.** ≥ 50%

**Q.** For `CCc1nc(-c2ccc(Br)s2)nc(Nc2ccc(C(=O)O)cc2)c1CC` [Example 220], which “inhibitory activity of PDE4 enzyme” value is on record?
**A.** ≥ 50%

**Q.** With `CCc1c(C)nc(-c2ccc(C(=O)N(C)C)s2)nc1Nc1ccc(CC(=O)O)cc1` [Example 236] as the compound, how does the “inhibitory activity of PDE4 enzyme” value read?
**A.** ≥ 50%

**Q.** Which “inhibitory activity of PDE4 enzyme” value does the source give for `C=CCc1c(C)nc(-c2ccc(Br)s2)nc1Nc1ccc(CC(=O)O)cc1` [Example 241] here?
**A.** ≥ 50%

**Q.** Which “inhibitory activity of PDE4 enzyme” value does the source give for `CCc1c(C)nc(-c2ccc(I)s2)nc1Nc1ccc(CC(=O)O)cc1` [Example 243] here?
**A.** ≥ 50%

**Q.** Which “inhibitory activity of PDE4 enzyme” value does the source give for `C=Cc1csc(-c2nc(C)c(CC)c(Nc3ccc(CC(=O)O)cc3)n2)c1` [Example 244] here?
**A.** ≥ 50%

**Q.** Which “inhibitory activity of PDE4 enzyme” value does the source give for `C=CCc1c(C)nc(-c2ccc(SC)s2)nc1Nc1ccc(CC(=O)O)cc1` [Example 250] here?
**A.** ≥ 50%

**Q.** `C=CCc1c(C)nc(-c2ccc(Cl)s2)nc1Nc1ccc(CC(=O)O)cc1` [Example 254] was tested. Which “inhibitory activity of PDE4 enzyme” value did it give?
**A.** ≥ 50%

**Q.** How did the “inhibitory activity of PDE4 enzyme” value turn out when `CCc1c(C)nc(-c2ccc(COC)s2)nc1Nc1ccc(CC(=O)O)cc1` [Example 257] was run?
**A.** ≥ 50%

**Q.** Which “inhibitory activity of PDE4 enzyme” value does the source give for `CCc1c(C)nc(-c2ccc(Br)o2)nc1Nc1ccc(CC(=O)O)cc1` [Example 264] here?
**A.** ≥ 50%

**Q.** With `CCc1c(C)nc(-c2ccc(Cl)o2)nc1Nc1ccc(CC(=O)O)cc1` [Example 265] as the compound, how does the “inhibitory activity of PDE4 enzyme” value read?
**A.** ≥ 50%
